Drawing on article PMC6911156, this text covers binding for two substances.

Chains of the proteins cited; added tags and fusions are not shown. Residues count along the entry.
UniProt P80370, residues 24-383: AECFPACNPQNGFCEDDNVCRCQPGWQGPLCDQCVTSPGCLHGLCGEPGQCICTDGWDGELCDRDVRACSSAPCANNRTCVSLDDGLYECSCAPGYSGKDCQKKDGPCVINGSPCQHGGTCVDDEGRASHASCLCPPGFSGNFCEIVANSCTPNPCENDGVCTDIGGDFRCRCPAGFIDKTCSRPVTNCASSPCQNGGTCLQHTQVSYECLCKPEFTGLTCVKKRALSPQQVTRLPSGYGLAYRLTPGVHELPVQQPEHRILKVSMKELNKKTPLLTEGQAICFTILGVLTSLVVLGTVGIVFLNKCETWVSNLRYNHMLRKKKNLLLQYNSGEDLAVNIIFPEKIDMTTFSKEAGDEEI
UniProt O75376: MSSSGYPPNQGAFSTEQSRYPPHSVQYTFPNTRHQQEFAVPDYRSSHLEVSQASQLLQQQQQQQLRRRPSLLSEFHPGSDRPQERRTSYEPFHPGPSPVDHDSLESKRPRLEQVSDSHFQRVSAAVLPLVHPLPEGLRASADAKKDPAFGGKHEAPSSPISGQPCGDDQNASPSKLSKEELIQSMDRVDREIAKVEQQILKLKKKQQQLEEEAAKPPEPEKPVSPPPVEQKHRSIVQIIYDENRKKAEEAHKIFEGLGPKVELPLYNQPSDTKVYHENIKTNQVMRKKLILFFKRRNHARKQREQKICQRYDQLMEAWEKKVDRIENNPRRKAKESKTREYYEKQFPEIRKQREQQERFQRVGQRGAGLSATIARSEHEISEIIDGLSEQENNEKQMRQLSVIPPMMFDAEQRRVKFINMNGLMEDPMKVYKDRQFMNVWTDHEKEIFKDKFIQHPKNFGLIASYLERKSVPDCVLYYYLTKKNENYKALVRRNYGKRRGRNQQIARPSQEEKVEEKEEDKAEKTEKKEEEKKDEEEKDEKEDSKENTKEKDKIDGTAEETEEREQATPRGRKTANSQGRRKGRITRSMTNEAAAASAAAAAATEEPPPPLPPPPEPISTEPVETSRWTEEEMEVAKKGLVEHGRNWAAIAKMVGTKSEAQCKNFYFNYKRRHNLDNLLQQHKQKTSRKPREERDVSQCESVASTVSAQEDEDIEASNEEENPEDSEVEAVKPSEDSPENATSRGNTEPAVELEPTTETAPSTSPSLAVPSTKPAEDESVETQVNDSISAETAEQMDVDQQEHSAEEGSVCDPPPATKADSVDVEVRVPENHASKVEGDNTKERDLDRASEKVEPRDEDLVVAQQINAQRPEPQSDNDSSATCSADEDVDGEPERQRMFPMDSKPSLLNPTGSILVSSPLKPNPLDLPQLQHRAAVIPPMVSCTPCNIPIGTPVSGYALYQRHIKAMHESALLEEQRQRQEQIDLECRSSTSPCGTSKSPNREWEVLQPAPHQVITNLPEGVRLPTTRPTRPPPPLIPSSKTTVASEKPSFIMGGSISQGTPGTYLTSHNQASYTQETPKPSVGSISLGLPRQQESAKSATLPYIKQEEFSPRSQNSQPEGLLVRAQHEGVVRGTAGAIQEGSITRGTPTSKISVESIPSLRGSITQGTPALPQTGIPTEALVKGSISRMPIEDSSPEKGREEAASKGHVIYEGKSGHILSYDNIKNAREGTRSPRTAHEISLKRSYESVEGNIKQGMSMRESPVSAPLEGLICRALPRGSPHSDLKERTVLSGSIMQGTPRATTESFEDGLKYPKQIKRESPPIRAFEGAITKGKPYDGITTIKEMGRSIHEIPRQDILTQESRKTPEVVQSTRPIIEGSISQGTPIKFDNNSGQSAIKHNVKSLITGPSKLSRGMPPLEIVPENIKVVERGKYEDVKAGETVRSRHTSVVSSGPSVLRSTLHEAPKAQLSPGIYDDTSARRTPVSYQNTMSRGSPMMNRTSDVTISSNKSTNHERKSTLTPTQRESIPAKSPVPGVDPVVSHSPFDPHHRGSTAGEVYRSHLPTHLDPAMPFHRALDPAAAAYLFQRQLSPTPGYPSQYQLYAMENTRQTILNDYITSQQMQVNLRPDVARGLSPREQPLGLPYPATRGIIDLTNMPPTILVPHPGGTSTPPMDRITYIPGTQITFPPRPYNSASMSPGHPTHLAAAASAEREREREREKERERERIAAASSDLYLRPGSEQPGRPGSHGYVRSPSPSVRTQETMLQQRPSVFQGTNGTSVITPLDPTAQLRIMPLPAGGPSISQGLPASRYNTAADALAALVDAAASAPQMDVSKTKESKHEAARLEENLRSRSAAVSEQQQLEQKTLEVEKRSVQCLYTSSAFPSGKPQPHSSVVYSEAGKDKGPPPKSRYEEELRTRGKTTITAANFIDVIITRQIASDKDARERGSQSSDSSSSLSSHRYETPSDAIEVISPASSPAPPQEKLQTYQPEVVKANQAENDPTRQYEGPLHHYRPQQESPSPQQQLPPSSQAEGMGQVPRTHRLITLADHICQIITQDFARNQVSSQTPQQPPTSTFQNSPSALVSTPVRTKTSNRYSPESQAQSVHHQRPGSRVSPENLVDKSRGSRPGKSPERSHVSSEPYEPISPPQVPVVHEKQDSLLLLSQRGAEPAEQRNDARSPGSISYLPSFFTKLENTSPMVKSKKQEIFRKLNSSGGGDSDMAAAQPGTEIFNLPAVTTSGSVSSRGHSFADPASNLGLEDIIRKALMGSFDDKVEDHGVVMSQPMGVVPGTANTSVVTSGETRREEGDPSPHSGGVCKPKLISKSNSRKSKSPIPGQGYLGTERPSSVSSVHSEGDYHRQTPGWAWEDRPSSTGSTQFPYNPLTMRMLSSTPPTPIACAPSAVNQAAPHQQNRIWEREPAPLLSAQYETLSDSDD

The target of assay [1] is Delta-like homolog 1 (DLK1) (human (endogenous in A549 and H1299)) (UniProt P80370). Nature of the assay: co-IP; endogenous proteins in RIPA lysates of A549 cells (IP anti-DLK1 and IP anti-NCOR1) and H1299 cells (IP anti-NCOR1); pre-cleared, protein A/G beads, Western blot; isotype IgG as control.
Assay [2] concerns the target nuclear receptor corepressor 1 (NCOR1) (human (endogenous in A549 and H1299)) (UniProt O75376). The assay is described as above.

No constants are given. Whether binding was seen depends on the method and setting. In cells and extracts the contact can be indirect. Some entries that bind do so weakly or less than the wild type.

With “nuclear receptor corepressor 1 (NCOR1) (from UniProt O75376 1-2440)”, in assay [1], the binding entry was “binds”.
With “Delta-like homolog 1 (DLK1) (from UniProt P80370 24-383)”, the binding entry in assay [2] is “binds”.
